This test addresses Cdh3-GFP (Xenopus). Put plainly: affinity purification with mass spectrometry.

Experimental findings from article doi:10.1101/2021.06.21.449290 are described below.

These are yes or no findings as the source states them, for the method shown. Binding seen in cells or lysates may run through a third protein. Here binding means that the protein was enriched with, or labelled near, the bait; the list need not be complete.

B1: Plakoglobin (protein, UniProt P30998 1-738)
chain: MDLGDVVEMPMKVTEWQKTYTYDSGINSGINTSVPSLNGKMVIEDDSLAYPNSYTTVKTTTYTQQQNPDMESHLNMTRAQRVRAAMYPETVEDHSYLFSTQIEGQQTNVQKLAEPSQMLKSAIMHLINYQDDAELATRAIPELTKLLNDEDPMVVNKASMIVNQLSKKEASRKALMQSPQIVAAIVRTMQHTSDMDTARCTTSILHNLSHHREGLLSIFKSGGIPALVRMLSSPVESVLFYAITTLHNLLLYQEGAKMAVRLADGLQKMVPLLNKNNPKFLAITTDCLQLLAYGNQESKLIILGNGGPQGLVQIMRNYNYEKLLWTTSRVLKVLSVCPSNKPAIVEAGGMQALGKHLTSNSPRLVQNCLWTLRNLSDVATKQEGLDNVLKILVNQLSSDDVNVLTCATGTLSNLTCNNGRNKTLVTQSNGVESLIHTILRASDKDDIAEPAVCAMRHLTSRHQDAEVAQNSVRLHYGIPAIVKLLNPPYQWPLVKATIGLIRNLALCPANHAPLYDAGVIPRLVQLLVKSHQDAQRHAASGTQQPYTDGVKMEEIVEGCTGALHILARDPVNRMDIYKLNTIPLFVQLLYSPVENIQRVSSGVLCELAQDKEAADTIDAEGASAPLMELLHSRNEGIATYAAAVLFRISEDKNADYRKRVSVELTNAIFRQDPAAWEAAQSMIPLNDPYSDEMENYRAMYPEDIPLEPMGGDMDVEYAMDGYSDHPGRGHYADNHMMA
On to B1, for which the binding entry is recorded as “binds”.

B2: p120-catenin (protein, UniProt Q8AXM9 1-859)
chain: MDEPESESPASILASVRAQEAQFELLSRALEEERRHVTAQLDRVWVTPQEPPLANGSLTRRQQDGLPFLYTPTRMEAHSVHADERYVIDDSSYKSCTLTDESRCSEIPIQTVVGYSQTLDRPYREAAGSGGAYTTVPRNYHFRGPGVDSTMPLISQSPHPGYSSLSRPNQRYRSVDPFRGPGYGPQPQVRGGGLGGSQSDLLSGRIYGSEDAYGLEDDRRSLGGFIDGPDYATTGRRGANGGDPRRRLRSYEDPLSDHFGSIPTSGSLSSLGPAPLTLAPNSGPWRHPELPEVLAMLSYTLDAVRLNAAAYLQHLSYRNEDVKREVCRLRGIPPLISLLEDPRAPIRLAACGALKNLSYGPARENKMAVKNCDGVPALARLLRRRGEGIEGRELAECVTGTLWNLSSLDSVKMELVDQALYTLTQEILVPHSGWQQDGGMQDRVEGKPRHVEWEPALVNTTGCLRNISSERSEARRKMRECEGLVDSVVHILRSEVSHGLVDSKLLENVVCLLRNISYHVHREIPHAEKYMESPQNASAETQNPSCFGVRRGKGKKASEEAVDTVDFPKQTMPAQGYDLLFQPEIVRLYISLVKSSHTPAVLEASAGAIQNLCAGNWVYGRCIRAAVRQEKGLSSLADHLTHESERVVRAICGALRNLCGDNRNRELIGKHALNSLVARLSSSSAQSSALSEDTNVCVINTIHEVISGNLEAAKRLRESQGIERLVLINKGGGRSEREIRAAGFCLQTIWGYKELRRPLEKDGWKKSDFQVSTAATSSVQGYDDSTLPLIDRNLKNEKKSVNADIPLNDFIADQFTHNGDSSNRLPTRSDELSELDPLKECSVSAGGSLNLGDAEDQRV
Regarding B2, the binding entry is “binds”.
